Measured values published in US20020081280A1.
These are yes or no findings as the source states them, for the method shown. Some entries that bind do so weakly or less than the wild type.

The chains behind the UniProt entries cited, without tags or fusion partners. Residues count along the entry.
UniProt P78310, residues 20-365: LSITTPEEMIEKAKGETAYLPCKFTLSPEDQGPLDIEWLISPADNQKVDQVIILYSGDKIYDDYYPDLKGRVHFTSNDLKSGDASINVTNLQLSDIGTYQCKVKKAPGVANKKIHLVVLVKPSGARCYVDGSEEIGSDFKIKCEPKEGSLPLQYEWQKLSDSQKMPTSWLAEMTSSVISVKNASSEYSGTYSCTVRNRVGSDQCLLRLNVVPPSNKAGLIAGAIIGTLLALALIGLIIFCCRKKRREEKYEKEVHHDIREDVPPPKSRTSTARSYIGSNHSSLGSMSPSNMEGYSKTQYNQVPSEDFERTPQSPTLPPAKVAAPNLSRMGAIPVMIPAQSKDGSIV

Biological target: coxsackievirus and adenovirus receptor (CAR) on human cells (human) (UniProt P78310)
Test: 125I-virion binding to HUVEC cells at 4 °C, knob at 100 µg/ml

B1: recombinant Ad5 fiber knob protein expressed in E. coli (protein)
chain: GAITVGNKNNDKLTLWTTPAPSPNCRLNAEKDAKLTLVLTKCGSQILATVSVLAVKGSLAPISGTVQSAHLIIRFDENGVLLNNSFLDPEYWNFRNGDLTEGTAYTNAVGFMPNLSAYPKSHGKTAKSNIVSQVYLNGDKTKPVTLTITLNGTQETGDTTPSAYSMSFSWDWSGHNYINEIFATSSYTFSYIAQE
Q: For B1, which binding is on record?
A: binds
